Laboratory results published in article PMC5924763.
These are yes or no findings as the source states them, for the method shown. Binding seen in cells or lysates may run through a third protein. Here binding means that the protein was enriched with, or labelled near, the bait; the list need not be complete. Tags and fused reporters may be left off the sequences shown.

Molecular target: T1, Flag-hnRNP F (UniProt P52597)
T1 sequence: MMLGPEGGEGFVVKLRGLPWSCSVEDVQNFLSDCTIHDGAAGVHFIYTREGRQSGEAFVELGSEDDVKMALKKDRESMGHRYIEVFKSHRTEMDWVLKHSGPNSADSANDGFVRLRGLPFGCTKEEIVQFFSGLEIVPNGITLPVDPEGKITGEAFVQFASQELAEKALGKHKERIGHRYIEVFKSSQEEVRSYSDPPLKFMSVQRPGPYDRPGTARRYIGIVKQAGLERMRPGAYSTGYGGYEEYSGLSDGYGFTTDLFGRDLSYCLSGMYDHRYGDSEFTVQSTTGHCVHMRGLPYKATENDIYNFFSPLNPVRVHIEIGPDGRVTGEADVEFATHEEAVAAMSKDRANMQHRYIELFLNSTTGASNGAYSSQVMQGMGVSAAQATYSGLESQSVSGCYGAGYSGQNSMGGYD
Test: affinity purification with mass spectrometry; cells transfected with Flag-ECD or Flag-hnRNP F (Flag vector as negative control) for 48 h; anti-Flag co-IP on protein A/G agarose, SDS-PAGE, silver stain, differential bands digested and analysed by nano-LC-MS/MS; cell line not stated

- binding: binds
B1: ZFP91 (endogenous) (enzyme, UniProt Q96JP5 1-570)
chain: MPGETEEPRPPEQQDQEGGEAAKAAPEEPQQRPPEAVAAAPAGTTSSRVLRGGRDRGRAAAAAAAAAVSRRRKAEYPRRRRSSPSARPPDVPGQQPQAAKSPSPVQGKKSPRLLCIEKVTTDKDPKEEKEEEDDSALPQEVSIAASRPSRGWRSSRTSVSRHRDTENTRSSRSKTGSLQLICKSEPNTDQLDYDVGEEHQSPGGISSEEEEEEEEEMLISEEEIPFKDDPRDETYKPHLERETPKPRRKSGKVKEEKEKKEIKVEVEVEVKEEENEIREDEEPPRKRGRRRKDDKSPRLPKRRKKPPIQYVRCEMEGCGTVLAHPRYLQHHIKYQHLLKKKYVCPHPSCGRLFRLQKQLLRHAKHHTDQRDYICEYCARAFKSSHNLAVHRMIHTGEKPLQCEICGFTCRQKASLNWHMKKHDADSFYQFSCNICGKKFEKKDSVVAHKAKSHPEVLIAEALAANAGALITSTDILGTNPESLTQPSDGQGLPLLPEPLGNSTSGECLLLEAEGMSKSYCSGTERVSLMADGKIFVGSGSSGGTEGLVMNSDILGATTEVLIEDSDSAGP
